Literature values in US20080207601A1, “Methods of and Compositions For the Prevention of Anxiety, Substance Abuse, and Dependence” (Hythiam , Inc., priority 2005, published 2008).
At least one compound was matched to its structure with a doubt left.

System: GABAA receptors
Conditions: 100 mM GHB substituted for ethanol

O=C(O)CCCO [GHB, Gamma-hydroxybutyrate]
effect on the positive modulation of 3 μM flumazenil induced by ethanol withdrawal: negated the positive modulation
